Drawing on patent publication US11572384B2 (FORSCHUNGSVERBUND BERLIN E.V., priority 2016, dated 2023), this text covers isolated mass and isolated yield for one substance.

The data set in a line: general procedure: Fmoc solid-phase peptide synthesis; Fmoc-L-Glu(tBu)-Wang resin (subst: 0.58 mmol/g); HOBt/HBTU/DIPEA. The note with it: whole synthesis, scale 0.1 mmol.

The substance CF-Tub-Tag had an isolated mass of 16 mg and an isolated yield of 8%.
